# In PubChem BioAssay (EPA / NIEHS):
# Chains of the proteins cited; added tags and fusions are not shown. Lines headed by an entry give the natural chain unless they say otherwise; changes in a name come on top.
# UniProt Q9Y233: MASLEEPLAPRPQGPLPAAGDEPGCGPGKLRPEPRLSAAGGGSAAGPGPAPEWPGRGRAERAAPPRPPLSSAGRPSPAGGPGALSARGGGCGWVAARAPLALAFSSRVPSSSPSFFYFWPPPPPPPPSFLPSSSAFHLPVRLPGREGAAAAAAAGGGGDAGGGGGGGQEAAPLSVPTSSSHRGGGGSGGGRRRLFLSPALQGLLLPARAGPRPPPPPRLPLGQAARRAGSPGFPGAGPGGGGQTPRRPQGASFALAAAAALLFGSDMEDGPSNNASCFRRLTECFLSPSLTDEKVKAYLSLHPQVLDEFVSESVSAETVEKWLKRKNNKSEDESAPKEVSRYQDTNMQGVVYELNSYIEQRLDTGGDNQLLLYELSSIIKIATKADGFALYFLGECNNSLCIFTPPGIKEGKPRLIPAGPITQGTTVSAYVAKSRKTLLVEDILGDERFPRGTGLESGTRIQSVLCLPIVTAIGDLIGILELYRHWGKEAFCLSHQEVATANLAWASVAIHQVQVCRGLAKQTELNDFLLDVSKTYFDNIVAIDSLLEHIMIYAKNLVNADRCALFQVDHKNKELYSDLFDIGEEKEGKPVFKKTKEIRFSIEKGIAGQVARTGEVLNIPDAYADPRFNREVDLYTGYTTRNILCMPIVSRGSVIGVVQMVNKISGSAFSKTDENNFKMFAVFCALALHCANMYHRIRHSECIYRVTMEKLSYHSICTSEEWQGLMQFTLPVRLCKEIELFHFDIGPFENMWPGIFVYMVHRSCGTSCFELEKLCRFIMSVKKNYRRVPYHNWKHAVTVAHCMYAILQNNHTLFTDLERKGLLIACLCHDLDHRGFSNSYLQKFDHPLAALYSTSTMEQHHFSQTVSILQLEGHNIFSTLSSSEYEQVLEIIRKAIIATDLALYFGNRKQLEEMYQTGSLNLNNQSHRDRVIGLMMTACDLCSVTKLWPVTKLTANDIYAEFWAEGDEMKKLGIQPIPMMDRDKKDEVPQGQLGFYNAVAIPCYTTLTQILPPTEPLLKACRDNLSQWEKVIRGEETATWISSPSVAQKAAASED
# Inconclusive results, whose numbers are uncertain, are shown with a selection of clear calls. A potency beside an inconclusive call is a rough fit, not a confirmed value. Active and inactive are the calls of the source. How the source made its calls: active means hit-call score of the fitted dose curve at least 0.9, where 1 is the maximum; inconclusive means response in the unintended direction; inactive means score below 0.9.
# Biological target: human Phosphodiesterase 10 (PDE10), PDE10A (gene 10846) (UniProt Q9Y233)
# Experiment: NVS_ENZ_hPDE10: NovaScreen (NVS) Enzymatic Assay for human Phosphodiesterase 10 (PDE10) (AID 2283195)
# Procedure, shortened: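 PDE10A, cell-free; 1 h incubation; fluorescence intensity + electrophoretic mobility shift separating substrate/product; DMSO = baseline; 25 uM duplicate primary, CRC up to 50 uM.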
Compound,AC50,outcome
Cc1ccc(S(=O)(=O)O)cc1C,inconclusive: 25 µM,
NCC1(Cc2noc(=O)[nH]2)CCCCC1,,inactive
Nc1ccc(N)c([N+](=O)[O-])c1,inconclusive: 44 µM,
CC1OC(=O)C(C)OC1=O (stereo not given),inconclusive: 29 µM,
Nc1cccnc1N,,inactive
